Measured values published in the supplement of paper PMC10849652.
This is one part of the list.

Amino acid sequences for entries named in this document (tags omitted). A change or cut given only in a name is not applied to a line headed by its entry.
UniProt Q96KR6: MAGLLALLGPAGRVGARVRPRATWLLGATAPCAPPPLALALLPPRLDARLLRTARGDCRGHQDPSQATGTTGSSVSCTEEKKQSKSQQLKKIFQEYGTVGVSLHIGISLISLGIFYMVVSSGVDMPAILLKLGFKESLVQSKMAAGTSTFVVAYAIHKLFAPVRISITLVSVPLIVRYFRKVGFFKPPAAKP
UniProt P39748, whole entry, looked up: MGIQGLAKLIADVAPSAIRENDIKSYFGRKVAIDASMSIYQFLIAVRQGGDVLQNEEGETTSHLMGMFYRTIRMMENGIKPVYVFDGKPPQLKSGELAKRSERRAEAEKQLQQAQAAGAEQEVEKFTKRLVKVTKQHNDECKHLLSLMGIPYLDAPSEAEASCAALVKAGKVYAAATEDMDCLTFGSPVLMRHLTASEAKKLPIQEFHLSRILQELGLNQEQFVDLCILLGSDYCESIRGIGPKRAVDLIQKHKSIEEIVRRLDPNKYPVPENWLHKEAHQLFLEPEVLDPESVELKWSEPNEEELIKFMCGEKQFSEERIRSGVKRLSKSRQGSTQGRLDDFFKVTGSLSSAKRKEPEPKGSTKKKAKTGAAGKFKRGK
UniProt Q8TDW7: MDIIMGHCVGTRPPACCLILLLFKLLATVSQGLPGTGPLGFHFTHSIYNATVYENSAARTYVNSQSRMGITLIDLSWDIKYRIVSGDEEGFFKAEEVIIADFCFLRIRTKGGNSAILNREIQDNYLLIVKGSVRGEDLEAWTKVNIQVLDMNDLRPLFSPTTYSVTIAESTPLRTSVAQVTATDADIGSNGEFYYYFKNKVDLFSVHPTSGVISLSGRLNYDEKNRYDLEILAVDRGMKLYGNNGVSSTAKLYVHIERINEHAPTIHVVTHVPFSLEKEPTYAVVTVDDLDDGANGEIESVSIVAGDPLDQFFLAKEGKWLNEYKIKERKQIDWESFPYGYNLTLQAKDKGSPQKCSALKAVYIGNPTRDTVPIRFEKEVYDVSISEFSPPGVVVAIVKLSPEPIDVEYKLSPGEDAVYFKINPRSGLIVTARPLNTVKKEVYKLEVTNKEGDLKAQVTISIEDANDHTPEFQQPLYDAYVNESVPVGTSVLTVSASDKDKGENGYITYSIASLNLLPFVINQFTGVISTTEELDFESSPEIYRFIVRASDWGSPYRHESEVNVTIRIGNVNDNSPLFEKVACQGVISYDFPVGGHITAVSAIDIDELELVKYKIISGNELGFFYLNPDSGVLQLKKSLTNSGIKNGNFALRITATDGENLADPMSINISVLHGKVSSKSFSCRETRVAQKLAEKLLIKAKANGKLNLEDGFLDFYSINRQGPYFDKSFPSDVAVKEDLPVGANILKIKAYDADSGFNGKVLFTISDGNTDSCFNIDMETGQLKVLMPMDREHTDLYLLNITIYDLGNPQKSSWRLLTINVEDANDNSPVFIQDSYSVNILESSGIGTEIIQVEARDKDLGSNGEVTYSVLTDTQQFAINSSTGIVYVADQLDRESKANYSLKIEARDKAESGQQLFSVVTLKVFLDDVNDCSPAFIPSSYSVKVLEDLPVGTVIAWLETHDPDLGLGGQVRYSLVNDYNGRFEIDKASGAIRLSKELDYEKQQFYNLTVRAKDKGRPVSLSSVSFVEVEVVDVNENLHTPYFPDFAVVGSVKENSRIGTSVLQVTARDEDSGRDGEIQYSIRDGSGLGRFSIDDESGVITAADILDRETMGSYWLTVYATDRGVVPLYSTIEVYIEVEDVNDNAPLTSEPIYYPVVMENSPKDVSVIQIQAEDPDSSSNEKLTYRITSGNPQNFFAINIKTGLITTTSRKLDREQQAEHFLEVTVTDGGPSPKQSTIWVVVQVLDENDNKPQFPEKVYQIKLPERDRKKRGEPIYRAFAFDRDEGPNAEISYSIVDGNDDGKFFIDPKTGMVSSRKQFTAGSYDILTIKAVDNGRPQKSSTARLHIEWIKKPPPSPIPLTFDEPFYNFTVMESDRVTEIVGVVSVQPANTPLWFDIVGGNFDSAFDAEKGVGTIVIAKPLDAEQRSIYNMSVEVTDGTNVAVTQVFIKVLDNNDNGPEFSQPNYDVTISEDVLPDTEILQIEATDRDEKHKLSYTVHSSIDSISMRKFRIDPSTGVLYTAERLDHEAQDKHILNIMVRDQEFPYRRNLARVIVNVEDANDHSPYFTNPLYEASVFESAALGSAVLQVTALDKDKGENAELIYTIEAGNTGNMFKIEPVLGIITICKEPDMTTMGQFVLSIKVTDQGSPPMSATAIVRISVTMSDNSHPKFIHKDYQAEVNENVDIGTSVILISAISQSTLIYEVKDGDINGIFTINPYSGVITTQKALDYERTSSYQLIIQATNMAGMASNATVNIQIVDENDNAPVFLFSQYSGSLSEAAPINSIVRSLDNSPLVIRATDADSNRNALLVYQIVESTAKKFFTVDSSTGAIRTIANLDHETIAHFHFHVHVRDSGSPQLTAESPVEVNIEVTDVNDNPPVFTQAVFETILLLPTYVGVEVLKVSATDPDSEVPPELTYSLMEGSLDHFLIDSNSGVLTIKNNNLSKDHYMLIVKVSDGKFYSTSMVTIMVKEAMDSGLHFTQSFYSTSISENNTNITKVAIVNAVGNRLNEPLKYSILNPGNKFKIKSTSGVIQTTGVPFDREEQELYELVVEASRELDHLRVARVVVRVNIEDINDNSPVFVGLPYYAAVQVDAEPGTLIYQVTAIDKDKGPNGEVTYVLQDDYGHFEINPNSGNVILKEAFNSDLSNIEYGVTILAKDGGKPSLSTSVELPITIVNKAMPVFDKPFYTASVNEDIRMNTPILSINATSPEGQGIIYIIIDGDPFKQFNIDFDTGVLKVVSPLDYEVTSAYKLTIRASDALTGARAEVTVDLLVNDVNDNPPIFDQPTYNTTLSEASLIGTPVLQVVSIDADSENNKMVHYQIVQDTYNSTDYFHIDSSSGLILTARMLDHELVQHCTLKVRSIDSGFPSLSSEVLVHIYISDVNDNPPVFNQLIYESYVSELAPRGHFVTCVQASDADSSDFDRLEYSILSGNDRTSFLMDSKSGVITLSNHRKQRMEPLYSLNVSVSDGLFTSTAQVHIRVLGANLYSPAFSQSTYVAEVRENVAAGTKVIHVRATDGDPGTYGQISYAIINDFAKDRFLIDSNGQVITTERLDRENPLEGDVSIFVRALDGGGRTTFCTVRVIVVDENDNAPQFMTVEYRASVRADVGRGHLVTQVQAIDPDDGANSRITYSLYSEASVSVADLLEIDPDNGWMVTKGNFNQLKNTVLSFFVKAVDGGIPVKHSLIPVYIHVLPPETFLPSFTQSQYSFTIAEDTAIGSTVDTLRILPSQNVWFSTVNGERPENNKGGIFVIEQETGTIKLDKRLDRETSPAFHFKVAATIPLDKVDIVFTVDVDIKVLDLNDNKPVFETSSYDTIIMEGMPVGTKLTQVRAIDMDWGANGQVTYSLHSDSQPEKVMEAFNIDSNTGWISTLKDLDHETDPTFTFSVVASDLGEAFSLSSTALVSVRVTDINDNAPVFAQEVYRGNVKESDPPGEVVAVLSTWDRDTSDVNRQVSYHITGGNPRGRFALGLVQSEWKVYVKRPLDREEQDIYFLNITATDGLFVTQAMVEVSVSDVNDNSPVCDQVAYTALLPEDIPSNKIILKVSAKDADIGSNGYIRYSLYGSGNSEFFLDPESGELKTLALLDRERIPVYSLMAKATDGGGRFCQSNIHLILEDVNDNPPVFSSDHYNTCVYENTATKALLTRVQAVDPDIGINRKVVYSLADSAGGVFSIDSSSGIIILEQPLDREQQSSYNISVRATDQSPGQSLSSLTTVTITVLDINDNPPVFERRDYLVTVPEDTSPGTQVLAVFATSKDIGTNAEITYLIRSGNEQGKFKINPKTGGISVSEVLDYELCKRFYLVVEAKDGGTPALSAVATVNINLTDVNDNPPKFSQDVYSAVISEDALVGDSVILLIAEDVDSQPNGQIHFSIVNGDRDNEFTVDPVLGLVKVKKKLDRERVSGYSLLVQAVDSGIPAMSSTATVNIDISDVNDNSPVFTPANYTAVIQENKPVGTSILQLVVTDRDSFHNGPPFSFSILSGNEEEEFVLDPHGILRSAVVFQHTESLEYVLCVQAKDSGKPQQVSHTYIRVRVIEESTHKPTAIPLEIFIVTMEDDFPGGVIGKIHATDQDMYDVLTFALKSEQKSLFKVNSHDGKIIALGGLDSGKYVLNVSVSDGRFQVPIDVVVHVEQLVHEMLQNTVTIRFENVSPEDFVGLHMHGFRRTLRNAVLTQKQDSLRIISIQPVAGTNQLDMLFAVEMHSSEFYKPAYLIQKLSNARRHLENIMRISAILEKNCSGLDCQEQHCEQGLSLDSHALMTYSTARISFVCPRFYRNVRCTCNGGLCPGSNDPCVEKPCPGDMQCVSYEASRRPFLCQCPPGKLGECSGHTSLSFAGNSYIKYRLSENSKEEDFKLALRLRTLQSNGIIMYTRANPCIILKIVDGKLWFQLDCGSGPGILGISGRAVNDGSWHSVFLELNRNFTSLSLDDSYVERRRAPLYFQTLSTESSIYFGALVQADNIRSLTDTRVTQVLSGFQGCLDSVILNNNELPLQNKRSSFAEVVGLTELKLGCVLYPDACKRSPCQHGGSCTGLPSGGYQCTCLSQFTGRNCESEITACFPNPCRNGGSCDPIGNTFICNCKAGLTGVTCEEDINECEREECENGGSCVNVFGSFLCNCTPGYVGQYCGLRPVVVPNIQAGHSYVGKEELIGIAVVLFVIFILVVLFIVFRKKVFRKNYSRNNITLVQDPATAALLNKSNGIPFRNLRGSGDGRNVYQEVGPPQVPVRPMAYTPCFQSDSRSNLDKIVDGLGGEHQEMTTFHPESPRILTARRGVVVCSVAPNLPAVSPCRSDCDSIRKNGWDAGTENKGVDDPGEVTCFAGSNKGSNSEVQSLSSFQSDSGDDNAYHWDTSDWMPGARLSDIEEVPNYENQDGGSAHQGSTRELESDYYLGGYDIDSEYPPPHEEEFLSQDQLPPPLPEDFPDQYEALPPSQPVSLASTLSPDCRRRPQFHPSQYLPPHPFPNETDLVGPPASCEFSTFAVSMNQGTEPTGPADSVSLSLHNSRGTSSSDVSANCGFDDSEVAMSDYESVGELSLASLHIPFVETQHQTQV
UniProt O14526: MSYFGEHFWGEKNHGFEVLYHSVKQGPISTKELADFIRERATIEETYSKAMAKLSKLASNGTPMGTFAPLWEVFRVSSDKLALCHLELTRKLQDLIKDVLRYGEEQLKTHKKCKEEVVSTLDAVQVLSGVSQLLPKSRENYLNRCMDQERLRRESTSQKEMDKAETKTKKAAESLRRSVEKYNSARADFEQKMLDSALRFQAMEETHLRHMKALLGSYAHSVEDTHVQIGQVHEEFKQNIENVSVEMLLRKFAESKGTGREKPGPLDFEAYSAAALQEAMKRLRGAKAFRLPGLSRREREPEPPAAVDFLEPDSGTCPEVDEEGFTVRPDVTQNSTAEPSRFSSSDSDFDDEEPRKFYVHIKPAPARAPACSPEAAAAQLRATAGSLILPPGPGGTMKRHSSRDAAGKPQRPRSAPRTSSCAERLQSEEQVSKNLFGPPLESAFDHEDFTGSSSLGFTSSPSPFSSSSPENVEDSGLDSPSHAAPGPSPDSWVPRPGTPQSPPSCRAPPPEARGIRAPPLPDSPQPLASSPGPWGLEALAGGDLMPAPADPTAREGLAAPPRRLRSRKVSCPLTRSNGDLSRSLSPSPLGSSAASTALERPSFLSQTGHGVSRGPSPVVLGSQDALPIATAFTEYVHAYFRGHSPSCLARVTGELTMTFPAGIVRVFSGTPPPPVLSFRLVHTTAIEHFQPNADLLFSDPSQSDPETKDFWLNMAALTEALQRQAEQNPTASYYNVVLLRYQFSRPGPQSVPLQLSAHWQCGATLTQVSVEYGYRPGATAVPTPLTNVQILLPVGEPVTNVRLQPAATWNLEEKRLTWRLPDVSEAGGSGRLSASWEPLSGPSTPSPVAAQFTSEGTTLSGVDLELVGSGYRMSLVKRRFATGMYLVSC
UniProt Q96SL8: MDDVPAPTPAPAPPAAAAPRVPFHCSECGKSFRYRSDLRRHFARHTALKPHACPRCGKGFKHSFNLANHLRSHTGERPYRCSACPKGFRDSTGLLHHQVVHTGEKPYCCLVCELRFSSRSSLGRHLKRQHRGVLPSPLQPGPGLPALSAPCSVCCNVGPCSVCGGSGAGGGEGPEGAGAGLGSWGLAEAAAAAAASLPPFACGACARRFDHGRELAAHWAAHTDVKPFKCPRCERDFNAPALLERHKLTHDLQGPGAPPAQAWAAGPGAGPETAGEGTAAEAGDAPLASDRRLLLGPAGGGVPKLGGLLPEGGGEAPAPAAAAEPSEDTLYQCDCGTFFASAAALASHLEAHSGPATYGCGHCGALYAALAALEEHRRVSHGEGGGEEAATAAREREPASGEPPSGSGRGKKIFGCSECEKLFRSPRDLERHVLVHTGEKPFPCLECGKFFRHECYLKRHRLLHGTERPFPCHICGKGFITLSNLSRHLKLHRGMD

What was measured:
Assay in all cases: log2 fold change, soluble protein after heating vs DMSO (PISA); higher = thermal stabilisation; K562 cells, 10 uM, 30 min; active = over 0.2 and 3.5 SD of the protein, either way, in both replicates (recomputed)
bafetinib = compound: Cc1ccc(NC(=O)c2ccc(CN3CC[C@H](N(C)C)C3)c(C(F)(F)F)c2)cc1Nc1nccc(-c2cncnc2)n1 [bafetinib]
Outline: (§1)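 K562 cells at 2×10^6 cells/mL were given 10 μM compound for 30 min. Aliquots then went through 3 min of heating across 48°C-58°C, were pooled, and were extracted in PBS with 0.5% NP-40 at 4°C, and the supernatant after 21,000xg for 90 min was quantified by TMTpro 16plex LC-MS/MS with channel sums equalised. Thermal stability relative to control samples, from duplicates, is given as log2 fold change.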

nilotinib = compound: Cc1cn(-c2cc(NC(=O)c3ccc(C)c(Nc4nccc(-c5cccnc5)n4)c3)cc(C(F)(F)F)c2)cn1 [nilotinib]
Outline: as §1

[1] = compound: Cc1nc(Nc2n[nH]c3c2CN(C(=O)N[C@H](CN(C)C)c2ccccc2)C3(C)C)c2sccc2n1
Outline: as §1

dasatinib = compound: Cc1nc(Nc2ncc(C(=O)Nc3c(C)cccc3Cl)s2)cc(N2CCN(CCO)CC2)n1 [dasatinib]
Outline: as §1

[2] = compound: Cc1ncc(-c2ccnc(Nc3ccc(S(C)(=O)=O)cc3)n2)n1C(C)C
Outline: as §1

[3] = compound: Cn1cc(-c2ccc3c(c2)CCN3C(=O)Cc2cccc(C(F)(F)F)c2)c2c(N)ncnc21
Outline: as §1

[4] = compound: Cn1cc(-c2ccc3nnc(C(F)(F)c4ccc5ncccc5c4)n3n2)cn1
Outline: as §1

tipifarnib = compound: Cn1cncc1[C@@](N)(c1ccc(Cl)cc1)c1ccc2c(c1)c(-c1cccc(Cl)c1)cc(=O)n2C [tipifarnib]
Outline: as §1

mubritinib = compound: FC(F)(F)c1ccc(/C=C/c2nc(COc3ccc(CCCCn4ccnn4)cc3)co2)cc1 [mubritinib]
Outline: as §1

[5] = compound: NC(=O)Nc1cc(-c2cccc(F)c2)sc1C(=O)N[C@H]1CCCNC1
Outline: as §1

[6] = compound: NC(=O)c1cnc(N[C@@H]2CCCC[C@@H]2N)nc1Nc1cccc(-n2nccn2)c1
Outline: as §1

[7] = compound: NC1(c2ccc(-c3nc4ccn5c(=O)[nH]nc5c4cc3-c3ccccc3)cc2)CCC1
Outline: as §1

[8] = compound: NCC(=O)Nc1ccc(-n2nc(C(F)(F)F)cc2-c2ccc3c(ccc4ccccc43)c2)cc1
Outline: as §1

entinostat = compound: Nc1ccccc1NC(=O)c1ccc(CNC(=O)OCc2cccnc2)cc1 [entinostat]
Outline: as §1

citarinostat = compound: O=C(CCCCCCNC(=O)c1cnc(N(c2ccccc2)c2ccccc2Cl)nc1)NO [citarinostat]
Outline: as §1

silmitasertib = compound: O=C(O)c1ccc2c(c1)nc(Nc1cccc(Cl)c1)c1ccncc12 [silmitasertib]
Outline: as §1

[9] = compound: O=C1NC(=O)C(c2cnc3ccccn23)=C1c1cn2c3c(cc(F)cc13)CN(C(=O)N1CCCCC1)CC2
Outline: as §1

[10] = compound: c1cc(OCCN2CCCCC2)cc(-c2n[nH]c3ccc(-c4nnc[nH]4)cc23)c1
Outline: as §1

[11] = compound: Cc1cccc(CC(=O)N2CCc3c2ccc(-c2cn(C)c4ncnc(N)c24)c3F)n1
Outline: as §1

vorinostat = compound: O=C(CCCCCCC(=O)Nc1ccccc1)NO [vorinostat]
Outline: as §1

Row | Target | log2 fold change (bafetinib) | log2 fold change (nilotinib) | log2 fold change [1] | log2 fold change (dasatinib) | log2 fold change [2] | log2 fold change [3] | log2 fold change [4] | log2 fold change (tipifarnib) | log2 fold change (mubritinib) | log2 fold change [5] | log2 fold change [6] | log2 fold change [7] | log2 fold change [8] | log2 fold change (entinostat) | log2 fold change (citarinostat) | log2 fold change (silmitasertib) | log2 fold change [9] | log2 fold change [10] | log2 fold change [11] | log2 fold change (vorinostat)
1 | FAM234A (UniProt Q9H0X4) | inactive: -0.046 | inactive: 0.006 | inactive: -0.018 | inactive: 0.038 | inactive: -0.1 | inactive: 0.185 | inactive: -0.005 | inactive: 0.09 | inactive: -0.05 | inactive: -0.012 | inactive: 0.028 | inactive: 0.134 | inactive: -0.006 | inactive: -0.106 | inactive: -0.007 | inactive: -0.083 | inactive: 0.048 | inactive: -0.051 |  | 
2 | FLII (UniProt Q13045) | inactive: -0.031 | inactive: -0.032 | inactive: -0.006 | inactive: -0.065 | inactive: 0.046 | inactive: 0.061 | inactive: 0.025 | inactive: -0.034 | inactive: 0.045 | inactive: -0.033 | inactive: -0.072 | inactive: -0.086 | inactive: -0.019 | inactive: -0.011 | inactive: 0.035 | inactive: 0.058 | inactive: -0.036 | inactive: -0.01 | inactive: 0.01 | inactive: 0.017
3 | FAM210B (UniProt Q96KR6) | inactive: -0.09 | inactive: -0.028 | inactive: -0.024 | inactive: 0.007 | inactive: 0.035 | inactive: 0.051 | inactive: 0.02 |  |  | inactive: -0.049 | inactive: 0.023 |  | inactive: 0.024 | inactive: -0.021 | inactive: 0.015 |  | inactive: -0.057 | inactive: -0.086 | inactive: 0.02 | inactive: -0.029
4 | FERMT3 (UniProt Q86UX7) | inactive: -0.022 | inactive: -0.036 | inactive: -0.053 | inactive: -0.075 | inactive: -0.015 | inactive: 0.029 | inactive: -0.019 | inactive: -0.087 | inactive: 0.051 | inactive: -0.055 | inactive: -0.107 | inactive: -0.106 | inactive: -0.065 | inactive: 0.032 | inactive: 0.067 | inactive: -0.001 | inactive: -0.048 | inactive: -0.02 | inactive: 0.029 | inactive: 0.026
5 | FAM89A (UniProt Q96GI7) | inactive: 0 | inactive: 0.351 | inactive: -0.287 |  | inactive: -0.166 |  | inactive: -0.111 |  | inactive: 0.087 | inactive: -0.185 |  | inactive: -0.035 |  | inactive: 0.026 | inactive: -0.096 | inactive: 0.03 |  | inactive: -0.242 |  | 
6 | FAM76A isoform 3 (UniProt Q8TAV0) | inactive: -0.098 |  |  |  |  |  |  | inactive: 0.052 |  | inactive: -0.149 | inactive: -0.012 |  | inactive: 0.115 | inactive: -0.016 | inactive: 0.052 |  | inactive: 0.103 | inactive: 0.159 | inactive: -0.066 | inactive: 0.069
7 | FEN1 (UniProt P39748) | inactive: 0.02 | inactive: -0.149 | inactive: 0.053 |  | inactive: -0.05 | inactive: 0.16 | inactive: 0.164 | inactive: -0.274 | inactive: 0.314 | inactive: -0.022 | inactive: -0.154 | inactive: -0.28 | inactive: -0.157 | inactive: 0.034 | inactive: 0.111 | inactive: -0.1 | inactive: -0.129 | inactive: 0.035 | inactive: 0.23 | inactive: 0.246
8 | FAT3 isoform 1 (UniProt Q8TDW7) | inactive: -0.046 | inactive: 0.195 | inactive: 0.076 | inactive: 0.073 | inactive: 0.564 |  | inactive: -0.232 | inactive: 0.01 | inactive: -0.087 | inactive: -0.131 |  | inactive: 0.408 | inactive: 0.094 | inactive: -0.037 | inactive: 0.043 | inactive: 0.126 | inactive: -0.135 | inactive: 0.572 |  | 
9 | FKRP (UniProt Q9H9S5) | inactive: -0.128 | inactive: 0.019 | inactive: 0.009 | inactive: -0.032 | inactive: -0.017 |  | inactive: 0.063 | inactive: -0.003 | inactive: 0.077 | inactive: -0.098 | inactive: -0.048 | inactive: -0.01 | inactive: 0.032 | inactive: -0.099 | inactive: 0.149 | inactive: 0.041 | inactive: 0.017 | inactive: -0.307 | inactive: 0.047 | inactive: -0.046
10 | FCHO1 (UniProt O14526) |  | inactive: -0.118 | inactive: -0.067 | inactive: -0.275 | inactive: -0.127 | inactive: 0.079 | inactive: 0.033 | inactive: -0.119 | inactive: -0.003 | inactive: -0.001 | inactive: -0.21 | inactive: -0.119 | inactive: 0.054 | inactive: -0.032 | inactive: -0.086 | inactive: -0.24 | inactive: -0.102 | inactive: 0.302 |  | 
11 | FIZ1 (UniProt Q96SL8) |  | inactive: -0.09 | inactive: 0.065 | inactive: -0.026 | inactive: -0.213 | inactive: -0.137 |  |  | inactive: -0.191 | inactive: 0.026 |  | inactive: 0.097 | inactive: 0.061 | inactive: -0.257 | inactive: -0.12 | inactive: -0.103 | inactive: 0.06 | inactive: 0.041 | inactive: -0.092 | inactive: 0.044
12 | FLT1 (UniProt P17948) |  |  |  |  |  |  |  | inactive: 0.197 |  |  |  |  | inactive: -0.388 |  | inactive: -0.16 |  |  | inactive: -0.053 |  | 
13 | FMR1 (UniProt Q06787) |  |  |  |  |  | inactive: -0.224 | inactive: -0.028 | inactive: -0.129 | inactive: -0.175 | inactive: 0.086 |  | active: 0.836 |  | inactive: -0.106 | inactive: 0.101 | inactive: 0.058 |  | inactive: -0.146 | inactive: -0.146 | inactive: -0.137
14 | FCHSD1 (UniProt Q86WN1) |  |  |  | inactive: -0.071 |  | inactive: 0.154 | inactive: 0.194 | inactive: -0.191 |  | inactive: 0.03 | inactive: -0.186 |  |  | inactive: -0.006 | inactive: 0.277 |  | inactive: 0.01 | inactive: 0.116 | inactive: -0.008 | inactive: -0.008

Quoted at random: 2 records from the list, in no set order.
Row | Target | log2 fold change (bafetinib) | log2 fold change (nilotinib) | log2 fold change [1] | log2 fold change (dasatinib) | log2 fold change [2] | log2 fold change [3] | log2 fold change [4] | log2 fold change (tipifarnib) | log2 fold change (mubritinib) | log2 fold change [5] | log2 fold change [6] | log2 fold change [7] | log2 fold change [8] | log2 fold change (entinostat) | log2 fold change (citarinostat) | log2 fold change (silmitasertib) | log2 fold change [9] | log2 fold change [10] | log2 fold change [11] | log2 fold change (vorinostat)
1 | FAM234A (UniProt Q9H0X4) | inactive: -0.046 | inactive: 0.006 | inactive: -0.018 | inactive: 0.038 | inactive: -0.1 | inactive: 0.185 | inactive: -0.005 | inactive: 0.09 | inactive: -0.05 | inactive: -0.012 | inactive: 0.028 | inactive: 0.134 | inactive: -0.006 | inactive: -0.106 | inactive: -0.007 | inactive: -0.083 | inactive: 0.048 | inactive: -0.051 |  | 
10 | FCHO1 (UniProt O14526) |  | inactive: -0.118 | inactive: -0.067 | inactive: -0.275 | inactive: -0.127 | inactive: 0.079 | inactive: 0.033 | inactive: -0.119 | inactive: -0.003 | inactive: -0.001 | inactive: -0.21 | inactive: -0.119 | inactive: 0.054 | inactive: -0.032 | inactive: -0.086 | inactive: -0.24 | inactive: -0.102 | inactive: 0.302 |  | 
